Experimental data as given in paper PMC4002904.

B1: 35S-labeled microsomal epoxide hydrolase (mEH) (enzyme, UniProt P07099 1-455)
chain: MWLEILLTSVLGFAIYWFISRDKEETLPLEDGWWGPGTRSAAREDDSIRPFKVETSDEEIHDLHQRIDKFRFTPPLEDSCFHYGFNSNYLKKVISYWRNEFDWKKQVEILNRYPHFKTKIEGLDIHFIHVKPPQLPAGHTPKPLLMVHGWPGSFYEFYKIIPLLTDPKNHGLSDEHVFEVICPSIPGYGFSEASSKKGFNSVATARIFYKLMLRLGFQEFYIQGGDWGSLICTNMAQLVPSHVKGLHLNMALVLSNFSTLTLLLGQRFGRFLGLTERDVELLYPVKEKVFYSLMRESGYMHIQCTKPDTVGSALNDSPVGLAAYILEKFSTWTNTEFRYLEDGGLERKFSLDDLLTNVMLYWTTGTIISSQRFYKENLGQGWMTQKHERMKVYVPTGFSAFPFELLHTPEKWVRFKYPKLISYSYMVRGGHFAAFEEPELLAQDIRKFLSVLERQ
modifications: 35S-methionine label
B2: VP16-tagged mEH 353-455 (domain or fragment, UniProt P07099 353-455)
chain: DLLTNVMLYWTTGTIISSQRFYKENLGQGWMTQKHERMKVYVPTGFSAFPFELLHTPEKWVRFKYPKLISYSYMVRGGHFAAFEEPELLAQDIRKFLSVLERQ

Legend:
[1] = target: T1, endogenous microsomal epoxide hydrolase (mEH) of Huh-7 hepatoma cells (human (endogenous in Huh-7)) (UniProt P07099); experiment: co-IP; Huh-7 cells transfected with pBIND constructs, RIPA lysate after 48 h; precipitated with goat polyclonal anti-mEH IgG and protein A agarose; blot with anti-GAL4BD and anti-mEH
T1 sequence: B1 chain

[2] = target: GST-HBSP fusion protein (hepatitis B spliced protein) (Hepatitis B virus); experiment: pull-down; GST-HBSP held on glutathione-Sepharose 4B beads; 35S-labeled mEH from reticulocyte lysate added, overnight at 4°C; washed three times with 1% Triton X-100 in PBS; SDS-PAGE and autoradiography; only the target purified
[3] = target: GAL4 DNA-binding domain fused C terminal 64 amino acids of HBSP (Hepatitis B virus); experiment: two-hybrid; CheckMate mammalian two-hybrid in Huh-7 cells; pACT-EPHX1(353-455) with pBIND constructs and pG5luc reporter; renilla-normalised firefly luciferase at 48 h, relative to pBIND + pACT set to 1

Row | Molecule | binding [1] | other results
1 | GAL4 DNA-binding domain fused N terminal 47 amino acids of HBSP (Hepatitis B virus) (domain or fragment) | binds | 
2 | GAL4 DNA-binding domain fused C terminal 64 amino acids of HBSP (Hepatitis B virus) (domain or fragment) | no binding | 
3 | GAL4 DNA-binding domain fused full-length HBSP (Hepatitis B virus) | binds | 
4 | B1 |  | binding [2]: binds
5 | B2 |  | binding [3]: no binding

These are yes or no findings as the source states them, for the method shown. For some assays here: Binding seen in cells or lysates may run through a third protein. For some assays here: Binding calls can cover weak binding; strength is not graded here. For some assays here: Sequences can lack the tags named with a protein.
